For at least one entry, the source does not settle the construct or the ends of the probe. Where cells or extracts were used, other partners may take part. At least one verdict was read from the data and is not stated in words by the source.

This data set relates to His-SMAD4 + Flag-SMAD3. In words: TR-FRET (Tb-FAM PDI). As to conditions: cell lysate co-expressing both proteins; Pre-diluted cell lysate, 30 ul in 384-well plate, anti-FLAG M2-Tb 1:1000, anti-6xHis-D2 1:500, FAM oligo serially diluted 2-fold from 500 nM stock, 4 C 30 min; protein in a lysate after overexpression; protein details: 6xHis,Flag; label: 5'-FAM on strand 1 (3'-FAM version also listed). A general note: In TR-FRET formats the signal depends on donor and acceptor labels being close together.

For the sequence “CGCGTAAGAGCTCGGTACGTCTAGACTGCCGTCTAGACTTAGTACGTCTAGACTGCCGTCTAGACTTAGTACCTATCGATAGC (double strand) [FAM-SBE4]”, the binding result is “binds”.

Source of the values: PMC11063955, “A multiplexed time-resolved fluorescence resonance energy transfer ultrahigh-throughput screening assay for targeting the SMAD4–SMAD3–DNA complex” (Journal of Molecular Cell Biology, 2023).
